Measurements: the supplement of paper PMC10849652
This is one part of the list. Residues, ends and D or L forms follow the SMILES beside them. *: point of attachment. Cbz = O=C(OCc1ccccc1)*

By UniProt entry, the sequences of proteins in these tests, tags left out. Where a name states a change or a piece, a line headed by the entry shows the natural chain unless it says otherwise.
UniProt O60637: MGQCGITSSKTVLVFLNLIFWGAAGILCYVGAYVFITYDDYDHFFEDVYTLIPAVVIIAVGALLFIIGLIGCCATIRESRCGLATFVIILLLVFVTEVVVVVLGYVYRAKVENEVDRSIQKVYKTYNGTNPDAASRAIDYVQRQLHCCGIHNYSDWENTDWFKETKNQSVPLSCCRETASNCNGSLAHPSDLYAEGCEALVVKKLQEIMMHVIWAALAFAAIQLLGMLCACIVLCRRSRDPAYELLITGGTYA
UniProt P26368, whole entry, looked up: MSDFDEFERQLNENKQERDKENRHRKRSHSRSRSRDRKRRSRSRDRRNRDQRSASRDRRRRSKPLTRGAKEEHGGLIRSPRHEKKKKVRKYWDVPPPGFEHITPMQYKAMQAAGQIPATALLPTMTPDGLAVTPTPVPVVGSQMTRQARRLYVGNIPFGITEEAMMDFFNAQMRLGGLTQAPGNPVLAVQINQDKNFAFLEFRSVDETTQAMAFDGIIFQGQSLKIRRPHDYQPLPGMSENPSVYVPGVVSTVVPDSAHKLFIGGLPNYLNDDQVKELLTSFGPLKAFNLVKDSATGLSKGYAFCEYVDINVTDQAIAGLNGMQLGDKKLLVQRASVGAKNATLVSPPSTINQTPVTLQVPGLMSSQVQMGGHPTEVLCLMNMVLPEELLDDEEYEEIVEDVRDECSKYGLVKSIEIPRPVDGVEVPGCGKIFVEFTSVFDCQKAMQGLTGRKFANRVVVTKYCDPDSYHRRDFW
UniProt O14933: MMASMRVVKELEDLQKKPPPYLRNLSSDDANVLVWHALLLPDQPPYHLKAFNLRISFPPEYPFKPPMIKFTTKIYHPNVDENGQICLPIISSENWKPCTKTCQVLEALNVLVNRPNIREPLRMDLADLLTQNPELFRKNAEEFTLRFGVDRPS
UniProt Q99757: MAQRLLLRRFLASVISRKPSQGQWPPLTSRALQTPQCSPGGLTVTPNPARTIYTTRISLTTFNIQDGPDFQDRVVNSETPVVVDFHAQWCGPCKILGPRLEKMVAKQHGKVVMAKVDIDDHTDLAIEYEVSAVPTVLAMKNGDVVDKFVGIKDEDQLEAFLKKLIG
UniProt A2RUC4: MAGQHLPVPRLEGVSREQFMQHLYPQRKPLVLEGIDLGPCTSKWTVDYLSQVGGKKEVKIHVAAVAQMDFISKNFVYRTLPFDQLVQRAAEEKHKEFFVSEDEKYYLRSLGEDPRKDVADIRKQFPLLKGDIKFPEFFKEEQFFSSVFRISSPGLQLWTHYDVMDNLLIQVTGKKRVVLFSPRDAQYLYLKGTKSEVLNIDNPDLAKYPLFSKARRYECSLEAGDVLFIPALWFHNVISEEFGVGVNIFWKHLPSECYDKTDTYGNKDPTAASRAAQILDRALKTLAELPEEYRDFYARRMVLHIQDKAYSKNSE
UniProt Q96N46: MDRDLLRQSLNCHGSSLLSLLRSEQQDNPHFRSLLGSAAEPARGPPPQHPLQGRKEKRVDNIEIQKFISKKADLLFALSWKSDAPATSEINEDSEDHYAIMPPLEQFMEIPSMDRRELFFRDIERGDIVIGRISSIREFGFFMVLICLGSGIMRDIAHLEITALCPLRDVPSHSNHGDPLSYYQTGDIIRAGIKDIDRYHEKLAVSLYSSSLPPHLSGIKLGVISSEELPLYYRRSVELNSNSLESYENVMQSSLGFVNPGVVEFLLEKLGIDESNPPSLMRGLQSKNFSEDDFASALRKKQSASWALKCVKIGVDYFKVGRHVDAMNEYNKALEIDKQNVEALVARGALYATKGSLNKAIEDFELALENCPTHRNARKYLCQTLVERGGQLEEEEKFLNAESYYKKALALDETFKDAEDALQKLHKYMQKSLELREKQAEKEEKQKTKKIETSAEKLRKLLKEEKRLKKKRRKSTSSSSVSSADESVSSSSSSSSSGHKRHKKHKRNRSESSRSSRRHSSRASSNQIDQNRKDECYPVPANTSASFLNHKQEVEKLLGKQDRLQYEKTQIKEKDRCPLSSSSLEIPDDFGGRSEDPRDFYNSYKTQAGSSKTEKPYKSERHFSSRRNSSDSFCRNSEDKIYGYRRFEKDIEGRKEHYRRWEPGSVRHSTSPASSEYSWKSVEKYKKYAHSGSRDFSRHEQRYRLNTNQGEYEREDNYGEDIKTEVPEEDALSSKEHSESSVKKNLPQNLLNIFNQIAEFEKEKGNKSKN
UniProt Q06418: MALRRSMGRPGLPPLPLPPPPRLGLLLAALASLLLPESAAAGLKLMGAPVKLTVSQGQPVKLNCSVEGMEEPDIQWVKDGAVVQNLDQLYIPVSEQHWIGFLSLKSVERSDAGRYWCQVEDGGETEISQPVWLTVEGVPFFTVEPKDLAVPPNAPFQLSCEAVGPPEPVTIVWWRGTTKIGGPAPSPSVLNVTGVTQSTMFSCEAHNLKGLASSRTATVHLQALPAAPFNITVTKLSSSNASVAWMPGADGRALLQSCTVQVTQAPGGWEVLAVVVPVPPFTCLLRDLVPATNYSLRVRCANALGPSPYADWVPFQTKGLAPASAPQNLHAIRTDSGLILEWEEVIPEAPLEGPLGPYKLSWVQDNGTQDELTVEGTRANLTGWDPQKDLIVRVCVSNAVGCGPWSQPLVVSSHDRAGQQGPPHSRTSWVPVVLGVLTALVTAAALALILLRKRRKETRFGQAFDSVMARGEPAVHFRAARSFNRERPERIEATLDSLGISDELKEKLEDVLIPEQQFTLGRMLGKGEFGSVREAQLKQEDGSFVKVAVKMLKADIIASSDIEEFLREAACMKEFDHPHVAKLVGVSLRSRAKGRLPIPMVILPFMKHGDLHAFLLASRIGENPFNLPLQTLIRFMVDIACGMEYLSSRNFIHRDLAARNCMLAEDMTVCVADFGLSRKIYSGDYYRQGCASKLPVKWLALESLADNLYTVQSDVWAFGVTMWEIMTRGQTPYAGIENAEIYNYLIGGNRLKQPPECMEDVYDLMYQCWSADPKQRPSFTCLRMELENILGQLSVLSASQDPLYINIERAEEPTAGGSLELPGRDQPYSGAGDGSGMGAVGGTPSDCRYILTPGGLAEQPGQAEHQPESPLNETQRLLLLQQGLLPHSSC
UniProt Q96FV3: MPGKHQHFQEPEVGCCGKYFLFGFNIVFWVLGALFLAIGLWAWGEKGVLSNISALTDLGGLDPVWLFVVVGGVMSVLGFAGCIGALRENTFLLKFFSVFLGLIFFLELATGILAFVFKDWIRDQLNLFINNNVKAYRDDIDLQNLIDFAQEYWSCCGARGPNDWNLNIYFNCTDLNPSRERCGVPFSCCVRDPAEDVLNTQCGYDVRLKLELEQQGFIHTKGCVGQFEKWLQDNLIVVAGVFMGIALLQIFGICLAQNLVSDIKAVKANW
UniProt Q5TAX3: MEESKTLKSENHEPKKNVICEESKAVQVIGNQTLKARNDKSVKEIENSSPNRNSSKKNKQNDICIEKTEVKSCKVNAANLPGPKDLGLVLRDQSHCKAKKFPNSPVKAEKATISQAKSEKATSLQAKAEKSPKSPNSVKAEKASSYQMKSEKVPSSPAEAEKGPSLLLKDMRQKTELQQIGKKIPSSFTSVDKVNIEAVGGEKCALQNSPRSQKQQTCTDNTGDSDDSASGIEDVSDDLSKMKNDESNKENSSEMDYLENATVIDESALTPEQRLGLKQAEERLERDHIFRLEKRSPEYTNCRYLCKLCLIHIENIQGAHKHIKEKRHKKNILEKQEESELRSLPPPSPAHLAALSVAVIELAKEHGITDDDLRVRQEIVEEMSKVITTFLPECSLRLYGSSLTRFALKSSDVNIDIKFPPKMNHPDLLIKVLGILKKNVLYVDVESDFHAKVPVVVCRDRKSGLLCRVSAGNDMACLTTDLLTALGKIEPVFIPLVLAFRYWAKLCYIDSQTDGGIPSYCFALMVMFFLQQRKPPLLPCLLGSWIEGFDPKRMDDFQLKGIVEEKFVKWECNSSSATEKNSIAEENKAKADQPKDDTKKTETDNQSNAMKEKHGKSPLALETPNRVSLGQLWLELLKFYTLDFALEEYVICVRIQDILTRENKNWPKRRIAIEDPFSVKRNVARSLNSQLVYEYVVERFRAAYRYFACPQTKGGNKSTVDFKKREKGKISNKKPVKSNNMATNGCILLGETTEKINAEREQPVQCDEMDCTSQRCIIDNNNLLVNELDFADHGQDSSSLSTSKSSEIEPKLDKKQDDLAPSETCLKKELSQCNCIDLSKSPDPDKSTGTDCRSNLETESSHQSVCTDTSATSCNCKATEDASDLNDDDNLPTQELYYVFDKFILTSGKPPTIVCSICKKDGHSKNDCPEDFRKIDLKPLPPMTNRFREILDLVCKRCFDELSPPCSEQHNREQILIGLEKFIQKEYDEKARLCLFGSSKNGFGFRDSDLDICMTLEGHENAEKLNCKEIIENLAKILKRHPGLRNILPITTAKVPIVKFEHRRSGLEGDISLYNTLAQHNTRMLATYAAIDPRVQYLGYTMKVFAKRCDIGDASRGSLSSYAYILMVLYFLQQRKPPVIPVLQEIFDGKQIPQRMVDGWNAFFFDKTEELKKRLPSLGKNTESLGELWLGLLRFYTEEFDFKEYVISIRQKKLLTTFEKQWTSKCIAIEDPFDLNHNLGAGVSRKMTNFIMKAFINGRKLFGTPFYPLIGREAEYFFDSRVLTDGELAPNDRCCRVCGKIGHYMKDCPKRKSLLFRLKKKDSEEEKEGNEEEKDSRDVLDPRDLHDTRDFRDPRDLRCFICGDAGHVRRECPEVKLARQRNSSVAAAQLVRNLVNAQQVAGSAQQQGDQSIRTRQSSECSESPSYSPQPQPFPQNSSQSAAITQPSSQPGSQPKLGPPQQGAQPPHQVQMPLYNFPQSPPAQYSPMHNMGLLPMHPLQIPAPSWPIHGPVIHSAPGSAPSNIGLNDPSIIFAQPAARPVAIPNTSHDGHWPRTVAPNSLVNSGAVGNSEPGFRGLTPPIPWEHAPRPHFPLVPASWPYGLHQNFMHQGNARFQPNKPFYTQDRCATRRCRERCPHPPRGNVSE
UniProt Q96AE7: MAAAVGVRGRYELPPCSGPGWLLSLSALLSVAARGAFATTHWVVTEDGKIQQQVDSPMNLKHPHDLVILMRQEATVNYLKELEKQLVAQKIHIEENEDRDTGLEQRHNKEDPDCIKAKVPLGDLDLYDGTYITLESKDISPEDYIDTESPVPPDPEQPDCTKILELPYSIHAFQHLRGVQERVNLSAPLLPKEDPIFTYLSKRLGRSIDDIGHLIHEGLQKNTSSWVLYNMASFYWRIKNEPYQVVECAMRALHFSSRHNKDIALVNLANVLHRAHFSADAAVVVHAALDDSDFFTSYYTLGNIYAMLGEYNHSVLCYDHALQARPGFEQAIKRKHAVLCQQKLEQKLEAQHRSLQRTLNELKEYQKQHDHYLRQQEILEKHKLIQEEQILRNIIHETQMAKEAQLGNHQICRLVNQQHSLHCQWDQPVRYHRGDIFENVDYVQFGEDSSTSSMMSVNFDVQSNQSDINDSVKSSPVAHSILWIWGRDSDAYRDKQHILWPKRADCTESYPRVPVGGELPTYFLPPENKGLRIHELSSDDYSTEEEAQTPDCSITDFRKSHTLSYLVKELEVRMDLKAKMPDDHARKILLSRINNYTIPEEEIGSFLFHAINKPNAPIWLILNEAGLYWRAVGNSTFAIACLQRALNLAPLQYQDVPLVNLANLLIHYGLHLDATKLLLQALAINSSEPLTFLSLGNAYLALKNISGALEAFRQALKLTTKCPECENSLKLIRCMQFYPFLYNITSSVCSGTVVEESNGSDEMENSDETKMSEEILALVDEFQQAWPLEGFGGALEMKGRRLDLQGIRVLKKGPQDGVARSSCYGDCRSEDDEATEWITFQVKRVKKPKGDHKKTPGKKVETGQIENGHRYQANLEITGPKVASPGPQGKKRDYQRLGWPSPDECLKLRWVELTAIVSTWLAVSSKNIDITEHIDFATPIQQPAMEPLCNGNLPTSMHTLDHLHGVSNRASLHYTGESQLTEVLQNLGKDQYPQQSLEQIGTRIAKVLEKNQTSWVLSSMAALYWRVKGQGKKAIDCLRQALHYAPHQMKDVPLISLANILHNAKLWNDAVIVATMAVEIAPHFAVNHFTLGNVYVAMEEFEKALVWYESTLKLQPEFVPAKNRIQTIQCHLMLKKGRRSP
UniProt O75896: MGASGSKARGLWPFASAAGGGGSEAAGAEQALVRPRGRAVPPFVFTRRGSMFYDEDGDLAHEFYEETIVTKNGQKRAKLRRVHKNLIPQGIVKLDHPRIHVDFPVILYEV
UniProt Q3B726, whole entry, looked up: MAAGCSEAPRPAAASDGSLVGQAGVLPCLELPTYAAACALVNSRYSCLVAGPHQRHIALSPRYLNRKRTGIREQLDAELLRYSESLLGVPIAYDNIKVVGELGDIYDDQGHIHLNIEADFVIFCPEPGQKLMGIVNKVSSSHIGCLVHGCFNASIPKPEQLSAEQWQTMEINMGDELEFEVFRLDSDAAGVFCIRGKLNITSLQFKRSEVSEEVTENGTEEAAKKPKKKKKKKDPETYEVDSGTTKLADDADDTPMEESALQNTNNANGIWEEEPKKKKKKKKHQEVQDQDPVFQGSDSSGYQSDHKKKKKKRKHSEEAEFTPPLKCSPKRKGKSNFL

Tests used:
Test in all cases: log2 fold change, soluble protein after heating vs DMSO (PISA); higher = thermal stabilisation; K562 cells, 10 uM, 30 min; active = over 0.2 and 3.5 SD of the protein, either way, in both replicates (recomputed)
erlotinib = compound: C#Cc1cccc(Nc2ncnc3cc(OCCOC)c(OCCOC)cc23)c1 [erlotinib]
How it was run: (§1)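 Thermal stability values are relative to control samples and come from duplicates. They are expressed as log2 fold changes. For measurement, K562 cells (2×10^6 cells/mL) received 10 μM compound for 30 min, and aliquots were heated for 3 min over 48°C-58°C, pooled, and extracted at 4°C in PBS with 0.5% NP-40. Soluble protein, the supernatant after 21,000xg for 90 min, was quantified by TMTpro 16plex LC-MS/MS with equalised channel sums.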

[1] = compound: C/C(=N\NC(=O)C1=CC(=CC=C1)S(=O)(=O)N2CCOCC2)/C3=C(C=CC(=C3)Cl)O
How it was run: as §1

[2] = compound: C1=CC(=CC=C1C2=NC3=C(N2)C=C(C=C3)C(=O)N)OC4=CC=C(C=C4)Cl
How it was run: as §1

[3] = compound: C1=CC2=C(C=CC(=C2)/C=C\3/C(=O)NC(=NCC4=CC=CS4)S3)N=C1
How it was run: as §1

[4] = compound: C1=CC=C(C=C1)C2=NC(=C(N2)C3=CC=NC=C3)C4=CC(=C(C=C4)Cl)O
How it was run: as §1

[5] = compound: C1=CC=C2C(=C1)C3=NNC4=CC=CC(=C43)C2=O
How it was run: as §1

[6] = compound: C1CCN(C1)C(=O)NC2=CC=CC(=C2)NC3=NC=C(C(=N3)NCCC4=CN=CN4)Br
How it was run: as §1

[7] = compound: C1CN(CCC1(CC2=CC=C(C=C2)Cl)N)C3=NC=NC4=C3C=CN4
How it was run: as §1

IRAK-1-4 Inhibitor I = compound: C1COCCN1CCN2C3=CC=CC=C3N=C2NC(=O)C4=CC(=CC=C4)[N+](=O)[O-] [IRAK-1-4 Inhibitor I]
How it was run: as §1

[8] = compound: CC(=O)c1cnc2ccc(-c3cc(Cl)c(O)c(Cl)c3)nc2c1N[C@H]1CC[C@H](CN(C)C)CC1
How it was run: as §1

ralimetinib = compound: CC(C)(C)Cn1c(N)nc2ccc(-c3[nH]c(C(C)(C)C)nc3-c3ccc(F)cc3)nc21 [ralimetinib]
How it was run: as §1

[9] = compound: CC(C)C1=C2N=C(C=C(N2N=C1)NCC3=CC=CC=C3)NCCCCCCN
How it was run: as §1

[10] = compound: CC(C)C[C@@H](C=O)NC(=O)[C@H](CC(C)C)NC(=O)[C@H](CC(C)C)NC(=O)OCc1ccccc1
How it was run: as §1

pinometostat = compound: CC(C)N(C[C@H]1O[C@@H](n2cnc3c(N)ncnc32)[C@H](O)[C@@H]1O)[C@H]1C[C@@H](CCc2nc3cc(C(C)(C)C)ccc3[nH]2)C1 [pinometostat]
How it was run: as §1

[11] = compound: CC1=C(C2=C(C=C1)C(=O)C3=CC=CC=C3N2CCCN)C
How it was run: as §1

[12] = compound: C1=CC2=NC=CN=C2C=C1/C=C/3\C(=O)NC(=O)S3
How it was run: as §1

ibrutinib = compound: C=CC(=O)N1CCC[C@@H](n2nc(-c3ccc(Oc4ccccc4)cc3)c3c(N)ncnc32)C1 [ibrutinib]
How it was run: as §1

[13] = compound: CC1=C(C(CC(=O)N1)C2=CC=C(C=C2)C(F)(F)F)C(=O)NC3=C(C=C4C(=C3)C=NN4)F
How it was run: as §1

[14] = compound: C1=CC(=C(C=C1Cl)C2=NC3=NC=CN=C3C(=N2)NC4=CC=NC=C4)F
How it was run: as §1

[15] = compound: CC(C)(O)CC(=O)NCCn1ccc2ncnc(Nc3ccc(Oc4cccc(C(F)(F)F)c4)c(Cl)c3)c21
How it was run: as §1

Target	log2 fold change (erlotinib)	log2 fold change [1]	log2 fold change [2]	log2 fold change [3]	log2 fold change [4]	log2 fold change [5]	log2 fold change [6]	log2 fold change [7]	log2 fold change (IRAK-1-4 Inhibitor I)	log2 fold change [8]	log2 fold change (ralimetinib)	log2 fold change [9]	log2 fold change [10]	log2 fold change (pinometostat)	log2 fold change [11]	log2 fold change [12]	log2 fold change (ibrutinib)	log2 fold change [13]	log2 fold change [14]	log2 fold change [15]
TTC13 (UniProt Q8NBP0)	inactive: -0.127	inactive: -0.025	inactive: 0.08	inactive: -0.162	inactive: -0.251	inactive: 0.077	inactive: -0.018	inactive: 0.085	inactive: -0.018	inactive: 0.155	inactive: -0.006	inactive: -0.001	inactive: 0.04	inactive: 0.111	inactive: 0.14	–	–	–	–	–
TSPAN3 (UniProt O60637)	inactive: 0.042	inactive: -0.006	inactive: 0.093	inactive: -0.011	inactive: -0.172	inactive: 0.03	inactive: 0.029	inactive: 0.013	inactive: -0.017	inactive: 0.025	inactive: -0.337	inactive: -0.017	inactive: 0.169	inactive: -0.009	inactive: 0.032	inactive: 0.043	inactive: -0.039	inactive: -0.015	–	–
U2AF2 (UniProt P26368)	inactive: 0.012	inactive: 0.045	inactive: 0.029	inactive: -0.045	inactive: 0.012	inactive: -0.048	inactive: -0.026	inactive: -0.074	inactive: -0.069	active: -0.313	inactive: 0.03	inactive: -0.102	inactive: 0.028	inactive: 0.03	inactive: 0.192	inactive: -0.004	inactive: 0.029	–	inactive: -0.013	inactive: -0.011
UBE2L6 (UniProt O14933)	inactive: 0.06	inactive: -0.022	inactive: 0.054	inactive: 0.078	–	inactive: -0.021	–	–	–	inactive: -0.12	–	inactive: -0.033	–	–	–	–	–	–	–	–
TUBB2B (UniProt Q9BVA1)	inactive: 0.034	inactive: -0.077	inactive: -0.081	inactive: -0.006	inactive: -0.041	inactive: -0.026	inactive: -0.067	inactive: 0.127	inactive: 0.174	inactive: 0.05	inactive: 0.041	inactive: 0.002	inactive: -0.037	inactive: -0.058	inactive: 0.032	inactive: 0.037	inactive: 0	inactive: 0.022	–	–
TTC7B isoform 2 (UniProt Q86TV6)	inactive: 0.015	inactive: -0.034	inactive: -0.037	inactive: 0.076	inactive: -0.028	inactive: 0.04	inactive: -0.014	inactive: 0.013	inactive: -0.037	inactive: -0.202	inactive: 0.042	inactive: -0.02	inactive: 0.037	inactive: -0.112	inactive: 0.205	inactive: 0.117	inactive: 0.149	inactive: -0.019	–	–
TXN2 (UniProt Q99757)	inactive: -0.035	inactive: -0.022	inactive: -0.032	inactive: 0.086	inactive: -0.02	inactive: 0.029	inactive: 0.029	inactive: 0.005	inactive: 0.081	inactive: 0.072	inactive: -0.093	inactive: 0.086	inactive: -0.029	inactive: -0.048	inactive: 0.041	inactive: 0.098	inactive: 0.021	–	inactive: 0.093	inactive: 0.079
TYW5 (UniProt A2RUC4)	inactive: -0.045	inactive: -0.136	inactive: 0.052	inactive: 0.042	inactive: 0.035	inactive: -0.021	inactive: 0.078	inactive: 0.071	–	inactive: -0.284	inactive: 0.085	inactive: -0.164	inactive: -0.155	–	inactive: -0.006	–	–	–	inactive: 0.12	inactive: 0.027
TSG101 (UniProt Q99816)	inactive: 0.022	inactive: 0.054	inactive: 0.027	inactive: 0.046	inactive: -0.032	inactive: 0	inactive: 0.003	inactive: -0.006	inactive: 0.05	inactive: -0.017	inactive: -0.005	inactive: -0.146	inactive: 0.031	inactive: -0.003	inactive: -0.012	inactive: 0.004	inactive: 0.004	–	inactive: 0.051	inactive: -0.025
TST (UniProt Q16762)	inactive: 0.188	inactive: 0.106	inactive: -0.079	inactive: 0.218	–	inactive: -0.241	–	–	inactive: -0.03	inactive: -0.059	–	inactive: -0.222	–	inactive: 0.04	–	–	–	inactive: 0.069	inactive: -0.312	inactive: 0.045
TTC14 (UniProt Q96N46)	inactive: 0.267	–	inactive: 0.122	–	–	–	inactive: 0.08	inactive: -0.047	–	–	–	inactive: 0.166	–	–	inactive: 0.569	inactive: -0.056	inactive: -0.104	–	–	–
TYRO3 (UniProt Q06418)	–	–	–	–	–	–	–	–	inactive: -0.029	–	–	–	–	inactive: 0.132	–	inactive: 0.155	inactive: -0.071	inactive: 0.148	inactive: 0.033	inactive: -0.036
TSPAN17 isoform 4 (UniProt Q96FV3)	inactive: -0.156	–	inactive: -0.011	–	–	–	–	–	–	–	–	inactive: -0.097	–	–	–	–	–	–	inactive: 0.087	inactive: -0.338
TUT4 (UniProt Q5TAX3)	inactive: 0.077	–	inactive: 0.005	–	inactive: 0.08	–	inactive: -0.015	inactive: -0.129	inactive: 0.078	–	inactive: 0.07	inactive: -0.219	inactive: 0.086	inactive: 0.059	inactive: 0.104	inactive: -0.011	inactive: -0.029	–	inactive: -0.231	inactive: 0
TTC17 isoform 2 (UniProt Q96AE7)	inactive: 0.103	–	inactive: 0.081	–	–	–	–	–	inactive: -0.004	–	–	inactive: 0.071	–	inactive: 0.136	–	–	–	–	–	–
TUSC2 (UniProt O75896)	inactive: 0.043	–	inactive: 0.027	–	–	–	–	–	inactive: 0.088	–	–	inactive: 0.086	–	inactive: 0.017	–	inactive: 0.034	inactive: 0.017	inactive: 0.026	inactive: 0.231	inactive: 0.072
TWISTNB (UniProt Q3B726)	inactive: -0.004	–	inactive: -0.01	–	–	–	inactive: -0.315	inactive: -0.067	–	–	–	inactive: -0.05	–	–	inactive: 0.246	inactive: -0.459	inactive: 0.128	–	inactive: -0.517	inactive: 0.098

An excerpt of these results, comma-delimited:
Target,log2 fold change (erlotinib),log2 fold change [1],log2 fold change [2],log2 fold change [3],log2 fold change [4],log2 fold change [5],log2 fold change [6],log2 fold change [7],log2 fold change (IRAK-1-4 Inhibitor I),log2 fold change [8],log2 fold change (ralimetinib),log2 fold change [9],log2 fold change [10],log2 fold change (pinometostat),log2 fold change [11],log2 fold change [12],log2 fold change (ibrutinib),log2 fold change [13],log2 fold change [14],log2 fold change [15]
TTC13 (UniProt Q8NBP0),inactive: -0.127,inactive: -0.025,inactive: 0.08,inactive: -0.162,inactive: -0.251,inactive: 0.077,inactive: -0.018,inactive: 0.085,inactive: -0.018,inactive: 0.155,inactive: -0.006,inactive: -0.001,inactive: 0.04,inactive: 0.111,inactive: 0.14,–,–,–,–,–
U2AF2 (UniProt P26368),inactive: 0.012,inactive: 0.045,inactive: 0.029,inactive: -0.045,inactive: 0.012,inactive: -0.048,inactive: -0.026,inactive: -0.074,inactive: -0.069,active: -0.313,inactive: 0.03,inactive: -0.102,inactive: 0.028,inactive: 0.03,inactive: 0.192,inactive: -0.004,inactive: 0.029,–,inactive: -0.013,inactive: -0.011
